Here are results for 1 substance from PMC7438871.

The chains behind the UniProt entries cited, without tags or fusion partners.
UniProt P61586: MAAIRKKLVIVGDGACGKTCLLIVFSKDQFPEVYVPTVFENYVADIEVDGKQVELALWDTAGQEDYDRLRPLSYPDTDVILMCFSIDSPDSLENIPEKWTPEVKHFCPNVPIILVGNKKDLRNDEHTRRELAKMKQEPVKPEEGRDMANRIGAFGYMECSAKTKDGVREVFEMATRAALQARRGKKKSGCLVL

These are yes or no findings as the source states them, for the method shown. In cells and extracts the contact can be indirect. Some entries that bind do so weakly or less than the wild type. Where a sequence is shown, tags or fusion partners need not be part of it.

For this assay, the target named is T1, GST-RhoGDI2 Y130E (human) (UniProt P52566).
T1 sequence: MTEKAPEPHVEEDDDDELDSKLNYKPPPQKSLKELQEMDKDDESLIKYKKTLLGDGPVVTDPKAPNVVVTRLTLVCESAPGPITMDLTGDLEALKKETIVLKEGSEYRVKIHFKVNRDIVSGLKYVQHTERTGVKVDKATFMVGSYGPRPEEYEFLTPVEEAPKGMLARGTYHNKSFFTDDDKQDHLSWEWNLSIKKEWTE
As to the kind of experiment: pull-down; 25 ug GST-RhoGDI2 (WT or mutant) bound to glutathione Sepharose 4B beads, incubated with lysate of starved JURKAT or CCRF-CEM cells (4 x 10^7 cells) at 4 C for 4 h; 25 mM Tris pH 7.5, 150 mM NaCl, 1% Nonidet P-40, 5% glycerol, 60 mM MgCl2; Western blot with RhoA or RhoC antibody; only the target purified.

Regarding RhoA (from UniProt P61586 1-193), the binding result is “binds”.
